Assay results: patent publication US20230318003A1, “REDOX FLOW BATTERY AND AQUEOUS-BASED SOLUTION” (RIVUS AB, priority 2020, published 2023)

Experiment: Redox flow battery cycling, capacity utilization
Details: 50 mM
Text: The four different redox flow batteries were assembled according to table 4 below. For all four redox flow batteries, the negative electrolyte was based on NDI (denoted NDI-1) or modified NDI (denoted NDI-2) in a potassium chloride (KCl)-potassium phosphate (KPh) solution or NDI-1 and NDI-2 in an ammonium chloride (AmCl)-ammonium phosphate (AmPh) solution, while the positive electrolyte was based on BTMAP-Fc in a KCl-KPh solution and BTMAP-Fc in an AmCl-AmPh solution. NDI-1 and NDI-2 had the general structure according to formula III with the below listed specification: […]
NDI-1 had the specific formula: 2,7-bis(3-(dimethylamino)propyl)benzo[Imn][3,8]phenanthroline-1,3,6,8(2H,7H)-tetraone and NDI-2 had the specific formula: 4,9-bis(dimethylamino)-2,7-bis(3-(dimethylamino)propyl)benzo[Imn][3,8]phenanthroline-1,3,6,8(2H,7H)-tetraone. The first and second redox flow batteries had NDI-1 and the second and third redox flow batteries had NDI-2. The details of the composition of the first, second, third and fourth redox flow batteries are given in table 4 (the negative aqueous-based electrolyte corresponds to the second aqueous-based electrolyte and the positive aqueous-based electrolyte corresponds to the first aqueous-based electrolyte).
For each one of the four redox flow batteries, 10 ml of the negative electrolyte, and 20 ml of the positive electrolyte was used, to balance the capacities, and the concentration of the redox active materials (BTMAP-Fc, NDI-1 and NDI-2) was 50 mM for all the four redox flow batteries. Each one of the redox flow batteries were cycled (100 cycles) with a current density of 10 mA cm−2, and each cycle took between 1.5 and 2 hours.
The capacity utilizations of the four redox flow batteries shown in FIG. 15 are calculated based on the following relationship: […]

[1] = negative electrolyte in 1M AmCl and 0.5M AmPh, 10 mA cm−2 (batteries 2 and 4)
[2] = negative electrolyte in 1M KCl and 0.5M KPh, 10 mA cm−2 (batteries 1 and 3)

SMILES | Capacity change over 100 cycles [1] | Capacity change over 100 cycles [2]
CN(C)CCCN1C(=O)c2ccc3c4c(ccc(c24)C1=O)C(=O)N(CCCN(C)C)C3=O [NDI, 2,7-bis(3-(dimethylamino)propyl)benzo[Imn][3,8]phenanthroline-1,3,6,8(2H,7H)-tetraone] | slow capacity increase | significant capacity loss
CN(C)CCCN1C(=O)c2cc(N(C)C)c3c4c(cc(N(C)C)c(c24)C1=O)C(=O)N(CCCN(C)C)C3=O [NDI-2, 4,9-bis(dimethylamino)-2,7-bis(3-(dimethylamino)propyl)benzo[Imn][3,8]phenanthroline-1,3,6,8(2H,7H)-tetraone] | slow capacity increase | significant capacity loss
